Values quoted from earlier work in patent US20250288673A1, “GENE THERAPY FOR THE TREATMENT OF ACTIVATED PI3KINASE DELTA SYNDROME TYPE 1 (APDS1)” (Cellectis SA, priority 2022, published 2025).
At least one structure is not confirmed: it was looked up by name or label, or the drawing left a doubt.

Test system: PI3Kδ
Conditions: APDS1 treatment; cited from earlier work

In the case of `CCC(=O)N1CC[C@H](Nc2ncnc3c2CN(c2cnc(OC)c(C(F)(F)F)c2)CC3)C1` [Leniolisib], the “effect on lymphadenopathy and immune B cell subpopulations” value is given as “reduction in lymphadenopathy and normalization of immune B cell subpopulations”.
